Reference: US20100129515A1, “FLAVOUR MODULATING SUBSTANCES” (QUEST INTERNATIONAL SERVICES B.V., priority 2005, published 2010)
Some entries share one result that the patent states for a list of compounds.

Experiment: Tasting of 3% alcohol in water against ethanol water mixtures by professional panel (Example 12)
Type: in vivo

Compound | ethanol water mixture the sample tasted like (0.5 ppm in 3% alcohol in water) | ethanol water mixture the sample tasted like (0.1 ppm in 3% alcohol in water)
CCCCCCCCNC(=S)NCc1ccc(O)c(OC)c1 [N-vanillyl-N′-octyl thiourea] | 5-6% | 
CCCCCCCCNC(=O)NCc1ccc(O)c(OC)c1 [N-vanillyl-N′-octyl urea, N-octyl-N′-vanillyl urea] |  | 5-6%
